For part of these data: At least one structure is not confirmed: it was looked up by name or label, or the drawing left a doubt. Some of these results come from one statement about several compounds together. Numbered stars: 1 amine (or outer) side, 2 acyl side, 3 side chain; on linkers, the order of the positions; unused ones are H or OH. Bridge positions count the residues as written; N and C are the ends. Square brackets hold non-standard residues; d marks the D form. Peptide text beside a SMILES is read from it. I, II: the chains in the order shown. * marks the point of attachment. ξ: configuration not given here. EuK = O=C(O)CC[C@H](NC(=O)N[C@@H](CCCCN*)C(=O)O)C(=O)O; Dolaproine = CO[C@@H]([C@@H]1CCCN1)[C@@H](C)C(=O)O; Dil = CC[C@H](C)[C@H](NC)[C@@H](CC(=O)O)OC; X3 = O=C1CC([*:2])C(=O)N1CCCCCC(=O)[*:1]; PABC = O=C(OCc1ccc(N[*:1])cc1)[*:2]; X1 = C[C@@H](N*)[C@@H](O)c1ccccc1; X2 = O=C(Cc1ccc(CN[*:1])cc1)[*:2]; NMeV = CN[C@H](C(=O)O)C(C)C; ξCit = NC(=O)NCCCC(N)C(=O)O; CO = O=C([*:1])[*:2]; ξC = NC(CS)C(=O)O
Columns and labels:
[1] = molecular target: T1, FOLR1 (Homo sapiens, UniProt P15328); assay: BIAcore T200 binding affinity to FOLR1 (CM5 chip conjugated with FOLR1); conditions: FOLR1 on CM5 chip; N/D = no specific binding was detected
T1 construct: purchased R&D System 5646-FR
Text: Buffer: HBS-EP+ buffer 10× (GE, Cat #: BR100669), diluted 10 folds with deionized water before use.
In the experiment, CM5 chip was conjugated with ligand FOLR1 (R&D System, Cat #: 5646-FR).

Sequences of proteins named here, by UniProt entry; tags and fusion partners are left off. Residues count along the entry.
UniProt P15328, 25-233 limits assumed: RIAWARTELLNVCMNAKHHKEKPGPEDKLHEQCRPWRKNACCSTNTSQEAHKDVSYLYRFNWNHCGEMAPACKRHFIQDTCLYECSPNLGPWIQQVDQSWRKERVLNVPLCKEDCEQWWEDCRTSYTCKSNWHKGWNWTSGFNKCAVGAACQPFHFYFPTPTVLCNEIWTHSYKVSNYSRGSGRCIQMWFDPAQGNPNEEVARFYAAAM

[2] = tested on: LNCaP (human prostate cancer cells); assay: Inhibition of cell line proliferation, CCK8; assay type: cell-based; conditions: LNCaP versus 22RV1
Text: Since different cells have different sensitivity to a cell proliferation inhibitory toxicity of the payload in a ligand conjugate, the quantitative analysis may be interfered occasionally. A series of cell lines with known expression levels of receptors of different ligands were selected and tested for the response to inhibitory effects of the cell proliferation of a ligand conjugate and a single payload. The IC50 ratio of a single payload to that of a ligand conjugate in same cell line were taken to remove such interference.
Experimental operations: LNCaP and 22RV1 cells were prepared in advance, counted, and plated in 96-well cell culture plates at a cell density of 4×10^4 cells/ml and 2.0×10^4 cells/ml, respectively (100 μl/well); negative control and blank control wells were set on each plate. After adherent cell culture overnight, the diluted samples to be tested were added at 50 μl/well. The plates were placed in an incubator at 37° C., 5% CO2 and cultured for 68-72 hours. To each well, 15 μl (10% of the liquid volume in a well) of a color developing solution from CCK8 was added; and the plates were incubated at 37° C. for 45-70 minutes and each plate was read at 450 nm on a microplate reader. The data was edited using SoftMax Pro and a 4-P fitting curve was plotted. […]

Compound | Kd [1] [nM] | IC50 ratio in LNCaP relative to IC50 ratio in 22RV1 (times higher / factor) [2]
CC[C@@]1(O)C(=O)OCc2c1cc1n(c2=O)Cc2c-1nc1cc(F)c(C)c3c1c2[C@@H](NC(=O)COCNC(=O)CNC(=O)[C@H](Cc1ccccc1)NC(=O)CNC(=O)CNC(=O)CCCCCN1C(=O)CC(SC[C@H](NC(=O)CC[C@H](NC(=O)c2ccc(NCc4cnc5[nH]c(N)nc(=O)c5n4)cc2)C(=O)O)C(=O)N[C@@H](CCCCN)C(N)=O)C1=O)CC3 (stereo partly drawn) [FA-MMAE, reference compound] | 0.0643 | 
CC[C@H](C)[C@@H]([C@@H](CC(=O)N1CCC[C@H]1[C@H](OC)[C@@H](C)C(=O)N[C@H](C)[C@@H](O)c1ccccc1)OC)N(C)C(=O)[C@@H](NC(=O)[C@H](C(C)C)N(C)C(=O)OCc1ccc(NC(=O)C(CCCNC(N)=O)NC(=O)[C@@H](NC(=O)CCCCCN2C(=O)CC(SC[C@H](NC(=O)[C@H](CCCCN)NC(=O)[C@H](CC(=O)O)NC(=O)[C@H](CC(=O)O)NC(=O)Cc3ccc(CNC(=O)NCCCC[C@H](NC(=O)N[C@@H](CCC(=O)O)C(=O)O)C(=O)O)cc3)C(=O)N[C@@H](CCCCNC(=O)CC[C@H](NC(=O)c3ccc(NCc4cnc5[nH]c(N)nc(=O)c5n4)cc3)C(=O)O)C(N)=O)C2=O)C(C)C)cc1)C(C)C (stereo partly drawn) [CB-20BK] |  | 2-4
CC[C@H](C)[C@@H]([C@@H](CC(=O)N1CCC[C@H]1[C@H](OC)[C@@H](C)C(=O)N[C@H](C)[C@@H](O)c1ccccc1)OC)N(C)C(=O)[C@@H](NC(=O)[C@H](C(C)C)N(C)C(=O)OCc1ccc(NC(=O)C(CCCNC(N)=O)NC(=O)[C@@H](NC(=O)CCCCCN2C(=O)CC(SCC(NC(=O)[C@H](CCCCN)NC(=O)[C@H](CC(=O)O)NC(=O)[C@H](CC(=O)O)NC(=O)Cc3ccc(CNC(=O)NCCCC[C@H](NC(=O)N[C@@H](CCC(=O)O)C(=O)O)C(=O)O)cc3)C(N)=O)C2=O)C(C)C)cc1)C(C)C (stereo partly drawn) [CB-20AK, reference compound] (I: V[ξCit][PABC][NMeV]V[Dil][Dolaproine]-X1 / II: {EuK-CO}-[X2]DDK[ξC]-NH2; linker I:N-II:5 via X3) |  | 2-4
